PubChem BioAssay AID743454 | Peter MacCallum Cancer Centre | 2014

Assay: 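Knock-downs lowering viability or raising caspase 3/7 activity in vorinostat-treated resistant cells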 (primary screen)
System: human HCT116-VR colon cancer cells, selected for vorinostat resistance
Reagent: siRNA pool against human genes, 40 nM siRNA pool
Timing: vorinostat for 24 h, read-out about 72 h after transfection
Challenge: vorinostat at 2.5 µM final
Read-out: 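Cell viability by CellTiter-Fluor and caspase 3/7 activity by luminescence, each scaled to mock wells per plate, duplicates averaged, then robust z-scored over all plates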
Scale: viability robust z-score: higher = more viable cells than screen typical; caspase robust z-score: higher = more caspase 3/7 activity than screen typical
Active means: 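a knock-down is a hit when classed RV1 or RV2 for lowered viability, or CA1 or CA2 for caspase activation; those lethal without drug were dropped; hits were retested singly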
Here is an unselected part of about 18,000 reagents tested. 450 of them (2.5%) count as active. 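Single biological run; no consistent viability z cut-off exists, so the class columns, not z-scores, define the calls.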

The opening 6 records, ahead of the listing:
| Target gene | PubChem SID | viability hit class | caspase hit class | viability robust z-score | caspase robust z-score | activity call |
| --- | --- | --- | --- | --- | --- | --- |
| ARAP1 | SID152148719 | no change | no change | -0.32 | -0.05 | inactive |
| H2AC13 | SID135622124 | no change | no change | -1.1 | -0.62 | inactive |
| CDT1 | SID56478608 | no change | no change | 1.18 | -0.56 | inactive |
| NEDD1 | SID134313186 | no change | no change | -0.58 | 3.45 | inactive |
| B4GALT1 | SID134317208 | no change | no change | 0.22 | 0.35 | inactive |
| ECHDC3 | SID152148963 | no change | no change | 0.29 | -0.88 | inactive |

The list itself, from the first entry:
| Target gene | PubChem SID | viability hit class | caspase hit class | viability robust z-score | caspase robust z-score | activity call |
| --- | --- | --- | --- | --- | --- | --- |
| ARAP1 | SID152148719 | no change | no change | -0.32 | -0.05 | inactive |
| H2AC13 | SID135622124 | no change | no change | -1.1 | -0.62 | inactive |
| CDT1 | SID56478608 | no change | no change | 1.18 | -0.56 | inactive |
| NEDD1 | SID134313186 | no change | no change | -0.58 | 3.45 | inactive |
| B4GALT1 | SID134317208 | no change | no change | 0.22 | 0.35 | inactive |
| ECHDC3 | SID152148963 | no change | no change | 0.29 | -0.88 | inactive |
| OR8D1 | SID152153133 | no change | no change | 0.42 | 0.12 | inactive |
| LINC00482 | SID134322124 | no change | no change | -0.36 | -0.68 | inactive |
| VPS39 | SID135622661 | no change | no change | 0.04 | -0.22 | inactive |
| CAMK1G | SID56478930 | no change | no change | 0.38 | 0.48 | inactive |
| ZNF550 | SID152147958 | no change | no change | 0.08 | 2.05 | inactive |
| KIR2DL1 | SID135624029 | no change | CA1 (caspase activation) | -2.41 | 7.7 | active |
| ABCA7 | SID135621753 | no change | no change | 1.27 | -0.86 | inactive |
| PLAAT5 | SID152152101 | no change | CA1 (caspase activation) | -0.1 | 6.42 | active |
| CHRNB2 | SID152155764 | no change | no change | -0.21 | -0.57 | inactive |
| PAK3 | SID56478716 | no change | no change | -0.22 | -0.45 | inactive |
| TOX2 | SID152150949 | no change | no change | 0.94 | -0.44 | inactive |
| ACVR2B | SID135620907 | no change | no change | -2.6 | 4.91 | inactive |
| KRTAP19-7 | SID134322452 | no change | no change | 0.14 | 2.22 | inactive |
| PCDHA10 | SID134317484 | no change | no change | -1.81 | 2.13 | inactive |
| PXDN | SID152147865 | no change | no change | 0.64 | -0.68 | inactive |
| NACA2 | SID134329340 | no change | no change | -0.68 | -1.06 | inactive |
| ABCB11 | SID134312349 | no change | no change | 1.21 | -0.15 | inactive |
| CCDC33 | SID135622028 | no change | no change | -0.18 | -0.46 | inactive |
| CAPZB | SID152154611 | no change | no change | -0.96 | 3.38 | inactive |
| OSR2 | SID134319234 | no change | no change | 0.04 | -0.36 | inactive |
| ANKRD1 | SID134316779 | no change | no change | 0.24 | -1.01 | inactive |
| P2RY10 | SID135621056 | no change | no change | -0.24 | -0.3 | inactive |
| CDC26 | SID134321232 | no change | no change | -1.5 | 1.79 | inactive |
| TAS2R4 | SID134317339 | no change | no change | 0.57 | -0.54 | inactive |
| RBPJ | SID134312734 | no change | no change | 0.12 | 0.48 | inactive |
| DBF4 | SID135620786 | no change | no change | 0.2 | -0.38 | inactive |
| ANKRD53 | SID134318661 | no change | no change | -0.06 | -0.52 | inactive |
| CRISP2 | SID135623827 | no change | no change | 0.68 | -1.07 | inactive |
| SOX4 | SID134316097 | no change | no change | 1.23 | -0.02 | inactive |
| SYCN | SID152148269 | no change | no change | -0.14 | -0.32 | inactive |
| DRP2 | SID152150927 | no change | no change | 0.76 | -0.66 | inactive |
| LRRTM3 | SID152155311 | no change | no change | 0.39 | -0.15 | inactive |
| CENPC | SID152154126 | no change | no change | -0.72 | 0.02 | inactive |
| SLC25A21 | SID152153181 | no change | no change | 0.34 | -0.01 | inactive |
| WNT7A | SID134313410 | no change | no change | 0.03 | -0.64 | inactive |
| ACTR2 | SID152153506 | no change | no change | 1.25 | -0.32 | inactive |
| PARP4 | SID152152684 | no change | no change | -0.18 | 0.14 | inactive |
| ATP13A1 | SID152148979 | no change | no change | 1.13 | 0.56 | inactive |
| BMP15 | SID152154281 | no change | no change | -1.42 | -0.79 | inactive |
| OR6M1 | SID134329909 | no change | no change | 0.38 | -0.73 | inactive |
| DRC4 | SID134315631 | no change | no change | 2.18 | 1.04 | inactive |
| COPS7B | SID134318382 | no change | no change | 0.27 | 1 | inactive |
| PTPN9 | SID134313685 | no change | no change | 1.65 | 0.19 | inactive |
| ZNF28 | SID152153806 | no change | no change | 1.48 | 3.42 | inactive |
| OR4K15 | SID134329928 | no change | no change | 0.14 | -0.66 | inactive |
| ITGB2 | SID135621489 | no change | no change | -0.72 | 1.05 | inactive |
| ZNF557 | SID152147264 | no change | no change | -0.14 | -0.62 | inactive |
| TRNP1 | SID135624692 | no change | no change | -0.2 | 0.5 | inactive |
| FTCD | SID152152612 | no change | no change | 0.48 | -0.77 | inactive |
| RTL3 | SID134320873 | no change | no change | -1.2 | -0.13 | inactive |
| PRR16 | SID134324063 | no change | no change | -1.21 | -1 | inactive |
